These are yes or no findings as the source states them, for the method shown. Some results given as binding are weak or reduced against the parent protein; the word gives no strength.

By UniProt entry, the sequences of proteins in these tests, tags left out. Residues count along the entry.
UniProt P20333, residues 23-257: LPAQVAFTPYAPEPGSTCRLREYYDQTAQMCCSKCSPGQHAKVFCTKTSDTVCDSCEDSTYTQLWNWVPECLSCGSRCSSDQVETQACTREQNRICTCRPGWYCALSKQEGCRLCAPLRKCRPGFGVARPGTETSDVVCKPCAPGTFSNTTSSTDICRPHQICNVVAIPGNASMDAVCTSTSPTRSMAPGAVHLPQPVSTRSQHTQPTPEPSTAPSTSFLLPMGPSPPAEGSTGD

The target of this test is T1, Lymphotoxin-alpha (human) (UniProt P01374).
T1 sequence (looked up): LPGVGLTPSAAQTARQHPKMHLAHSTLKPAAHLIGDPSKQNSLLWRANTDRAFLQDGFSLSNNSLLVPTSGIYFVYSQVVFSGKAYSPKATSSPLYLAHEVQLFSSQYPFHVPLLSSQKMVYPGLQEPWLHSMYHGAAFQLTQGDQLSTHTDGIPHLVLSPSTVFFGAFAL
As to the kind of experiment: protein microarray, immobilized Fc fusion capturing fluorescently labeled plasma proteins.

For “Fc-Tumor necrosis factor receptor superfamily member 1B-fusion protein (from UniProt P20333 23-257) (Fc fusion)”, the binding result was “binds”.

These data come from patent US20230273222A1.
